The record followed here is patent US8658699B2, “Chemical permeation enhancers enhance nerve blockade by toxins” (priority 2008, dated 2014).

The subject of this data set is C2C12 myotubes. The note with it: high value favorable; for % Survival / EC100 min: ratio of in vitro survival to EC100min; for MBD / (100 − % Survival): ratio of maximum block duration to in vitro cytotoxicity.

Regarding `CCCCCCCCCCCCOS(=O)(=O)[O-].[Na+]` [SLS, Sodium Dodecyl Sulfate], the “% Survival / EC100 min” value came to 5.7 and the “MBD / (100 − % Survival)” value was 2.9.
For the compound polysorbate 20 [TW 20], the “% Survival / EC100 min” value is recorded as 24 and the “MBD / (100 − % Survival)” value stood at 27.
Take polysorbate 80 [TW 80]: the “% Survival / EC100 min” value came out at 2.0 and the “MBD / (100 − % Survival)” value is given as 6.0.
On to `CCCCCCCC[N+](C)(C)C.[Br-]` [OTAB, Octyl-trimethyl-ammonium Bromide], for which the “% Survival / EC100 min” value was 1.7 and the “MBD / (100 − % Survival)” value turned out to be 7.5.
With `CCCCCCCCCCCC[N+](C)(C)C.[Br-]` [DDAB, Dodecyl-trimethyl-ammonium Bromide], the “% Survival / EC100 min” value is on record as 5.0 and the “MBD / (100 − % Survival)” value is recorded as 6.4.
For `CCCCCCCCOS(=O)(=O)[O-].[Na+]` [SOS, Sodium Octyl Sulfate], the “% Survival / EC100 min” value was found to be 0.2 and the “MBD / (100 − % Survival)” value turned out to be 5.5.
